Test results from PubChem BioAssay (NCATS).
Inconclusive results, whose numbers are uncertain, are shown with a selection of clear calls. Where the call is inconclusive, the potency comes from a doubtful curve fit. Calls of active or inactive are those of the source. Calls come from the whole dose curve; as a rule, active = well fitted cell-killing curve with a large enough effect; inconclusive = small, poorly fitted or top-dose-only effect, or effect the other way; inactive = no such curve, though single readings can be large or run the other way.

assay: Quantitative High-Throughput drug screen in 47 multiple myeloma cell lines against the NCATS MIPE library collection: OPM2_DSMZ cell viability assay (AID 1919872); settings: OPM2 myeloma viability, CellTiter-Glo ATP luminescence, 48 h; series mostly up to 45.8 µM; viability (% of DMSO): at the top concentration; note: nearly all actives have a fitted effect of over 30% in size
Excerpt: PI: Beverly A. Mock Ph.D.
Laboratory of Cancer Biology and Genetics,
Center for Cancer Research, National Cancer Institute,
National Institute of Health, Bethesda, Maryland
Drug resistance and disease progression are common in multiple myeloma (MM) patients, underscoring the need for new therapeutic combinations. […] We hypothesized that effective combinations would reduce MYC expression and enhance p16 activity. […] These preclinical data identify potentially useful drug combinations for evaluation in drug-resistant MM and reveal potential mechanisms of combined drug sensitivity.
Described herein is the primary MIPE qHTS used to cherrypick compounds. Validated compounds were then further tested for potential synergistic activiy.
[1] Peat TJ, Gaikwad SM, Dubois W, Gyabaah-Kessie N, Zhang S, Gorjifard S, Phyo Z, Andres M, Hughitt VK, Simpson RM, Miller MA, Girvin AT, Taylor A, Williams D, D'Antonio N, Zhang Y, Rajagopalan A, Flietner E, Wilson K, Zhang X, Shinn P, Klumpp-Thomas C, McKnight C, Itkin Z, Chen L, Kazandijian D, Zhang J, Michalowski AM, Simmons JK, Keats J, Thomas CJ, Mock BA. Drug combinations identified by high-throughput screening promote cell cycle transition and upregulate Smad pathways in myeloma. Cancer Lett. 2023 Aug 1;568:216284. doi: 10.1016/j.canlet.2023.216284. Epub 2023 Jun 24. PMID: 37356470; PMCID: PMC10408729.
SEQUENCE No. (e.g., 1, 2, 3, etc.); […] (e.g., Cells, Incubation, Reagent, etc.); VALUE and DESCRIPTION.
1; Cells; 5 uL; white, solid bottom 1536-well Greiner assay plate.
2; Compounds; 23 nL; Kalypsis pin tool (Wako USA) equipped with a 1536-well pin head to transfer to the assay plates.
3; Incubation; 48 hours; 37C incubation.
4; Reagent;5uL; CellTiter Glo (Promega).
5; Detector; 425V; Luminescence; Viewlux PerkinElmer.
NOTES (numbers refer to Sequence numbers above)
1. The cell-based screening methods employed in this study were like those previously published. Briefly, the corresponding myeloma cell lines were screened in 1,536-well plates with 500 cells, 5-uL per well for inhibition of cell viability (assessed by measuring ATP levels with CellTiterGlo).
2. NCATS MIPE 4.0 library of approved and investigational drugs were added using the Kalypsis pin tool. Wells treated with DMSO only for 100% viability and media only wells for 0% viability were used as controls.
3. The assay plates were covered and incubated for 48 hours in a 37C, 5% CO2 incubator with controlled humidity.
4. After 48 hours, CellTilter-GloTM luminescent substrate mix (Promega) reagent was added to the assay plate and plates we incubated for 5 min at room temperature.
5. Signal was measured as median relative luminescence units on a ViewLux (PerkinElmer) multiplate reader.
[1] Heske CM, Davis MI, Baumgart JT, Wilson K, Gormally MV, Chen L, Zhang X, Ceribelli M, Duveau DY, Guha R, Ferrer M, Arnaldez FI, Ji J, Tran HL, Zhang Y, Mendoza A, Helman LJ, Thomas CJ. Matrix Screen Identifies Synergistic Combination of PARP Inhibitors and Nicotinamide Phosphoribosyltransferase (NAMPT) Inhibitors in Ewing Sarcoma. Clin Cancer Res. 2017 Dec 1;23(23):7301-7311. doi: 10.1158/1078-0432.CCR-17-1121. Epub 2017 Sep 12. PMID: 28899971; PMCID: PMC6636827.
Potency is the fitted concentration of half-maximal effect.

Compound | Potency | viability (% of DMSO)
CC(C)CNc1ccnc(NCc2csc(-c3ccccc3)n2)n1 | inconclusive: 26.4 µM [cytotoxic, single point] | 
Cc1nc(NC(=O)N2CCC[C@@H]2C(N)=O)sc1-c1ccnc(C(C)(C)C(F)(F)F)c1 | active: 20.9 µM | 
CC(=NNC(=S)N1CCC1)c1ccccn1 | active: 0.0074 µM | 
c1ccc2[nH]c(-c3cscn3)nc2c1 |  | inactive: 95.3%
CC=CC[C@@H](C)C(=O)[C@H]1C(=O)N[C@@H](C(C)C)C(=O)N(C)CC(=O)N(C)[C@@H](CC(C)C)C(=O)N[C@@H](C(C)C)C(=O)N(C)[C@@H](CC(C)C)C(=O)N[C@@H](C)C(=O)N[C@H](C)C(=O)N(C)[C@@H](CC(C)C)C(=O)N(C)[C@@H](CC(C)C)C(=O)N(C)[C@@H](C(C)C)C(=O)N1C | inconclusive: 26.4 µM [cytotoxic, single point] | 
CC(=O)N(C)C1(c2ccccc2)CCN(CCC[C@]2(c3ccc(Cl)c(Cl)c3)CCCN(C(=O)c3ccccc3)C2)CC1 | inconclusive: 26.4 µM [cytotoxic, single point] | 
CCCS(=O)c1ccc2nc(NC(=O)OC)[nH]c2c1 (stereo not given) | active: 23.5 µM | 
CCc1ccc(C=C2SC(=S)NC2=O)cc1 |  | inactive: 96.1%
Nc1nc2ccc(OC(F)(F)F)cc2s1 | active: 18.7 µM | 
Nc1ncnc2c1ncn2[C@@H]1O[C@@H](CO)[C@H](O)[C@H]1O |  | inactive: 101%
COC(=O)C1=CO[C@@H](O)[C@@H]2C(CO)=CC[C@@H]12 | inconclusive: 18.7 µM [cytotoxic, partial curve, poor fit] | 
CC1(C)Cc2c(sc(NC(=S)NC(=O)c3ccccc3)c2C(=O)O)CO1 | inconclusive: 1.32 µM [rising, full curve, poor fit] | 
COC(=O)Nc1ccc(-c2nc(N3CCOCC3)c3cnn(C4CCN(C(=O)OC)CC4)c3n2)cc1 | active: 2.35 µM | 
CC(C)[C@H](CO)Nc1nc(Nc2ccc(C(=O)O)c(Cl)c2)c2ncn(C(C)C)c2n1 | inconclusive: 16.6 µM [cytotoxic, partial curve, poor fit] | 
CC1(C)NC(=O)N(c2ccc([N+](=O)[O-])c(C(F)(F)F)c2)C1=O | inconclusive: 4.18 µM [cytotoxic, partial curve, poor fit] | 
CCOC(=O)N1CCN([N+]([O-])=NOc2ccc([N+](=O)[O-])cc2[N+](=O)[O-])CC1 | active: 1.05 µM | 
CC(=O)Oc1ccccc1C(=O)O |  | inactive: 107%
CN(C)c1cc(NC(=O)CNC(C)(C)C)c(O)c2c1C[C@@H]1C[C@H]3[C@H](N(C)C)C(=O)C(C(N)=O)=C(O)[C@@]3(O)C(=O)C1=C2O | inconclusive: 33.2 µM [cytotoxic, single point] | 
Clc1ccc(C(Cn2ccnc2)OCc2ccc(Sc3ccccc3)cc2)c(Cl)c1 (stereo not given) | inconclusive: 37.2 µM [cytotoxic, single point] | 
O=C(O)c1cc(=O)c2c(OCC(O)COc3cccc4oc(C(=O)O)cc(=O)c34)cccc2o1 |  | inactive: 117%

Compound | Potency | viability (% of DMSO)
Cc1ccnc(NS(=O)(=O)c2ccc(NC(=O)Nc3ccc(S(=O)(=O)Nc4nccc(C)n4)cc3)cc2)n1 | inconclusive: 33.2 µM [cytotoxic, single point] | 
O=c1cc(N2CCOCC2)oc2c(-c3ccccc3)cccc12 | inconclusive: 18.7 µM [cytotoxic, partial curve] | 
OC(CN1CCC(Cc2ccc(F)cc2)CC1)c1ccc(Cl)cc1 (stereo not given) |  | inactive: 102%
COc1cccc(-c2cc(=O)c3ccccc3o2)c1N |  | inactive: 98.5%
CN1C(=O)C(Cc2c[nH]c3ccccc23)NC1=S (stereo not given) |  | inactive: 110%
Cc1[nH]c(=O)c(C#N)cc1-c1ccc2nccn2c1 |  | inactive: 92.8%
CS(=O)c1ccc(-c2nc(-c3ccc(F)cc3)c(-c3ccncc3)[nH]2)cc1 (stereo not given) | inconclusive: 76.2 µM [cytotoxic, single point] | 
COc1cccc2c1CCCC2CCCN1CCN(C2CCCCC2)CC1 (stereo not given) | inconclusive: 13.2 µM [cytotoxic, partial curve] | 
O=c1cc(-c2ccc(O)cc2)oc2cc(O)cc(O)c12 | inconclusive: 20.9 µM [cytotoxic, partial curve, poor fit] | 
CCc1ccc(OCc2ccccc2C(=O)Nc2ccc3nc(C)cc(N)c3c2)cc1 | active: 9.35 µM | 
CNC1CCCN(c2c(F)cc3c(=O)c(C(=O)O)cn(C4CC4)c3c2OC)C1 (stereo not given) | inconclusive: 11.8 µM [cytotoxic, single point] | 
CC(=Cc1ccccc1)C=C1SC(=S)N(CC(=O)O)C1=O |  | inactive: 92.2%
COc1cc(Oc2ccnc3cc(OC)c(OC)cc23)ccc1NC(=O)NC(C)c1nccs1 (stereo not given) | inconclusive: 37.2 µM [cytotoxic, single point] | 
CC(C(=O)O)c1ccc(-c2ccccc2)c(F)c1 (stereo not given) |  | inactive: 99%
Cc1oncc1C(=O)Nc1ccc(C(F)(F)F)cc1 |  | inactive: 91%
CC(=O)O[C@]1(C(C)=O)CC[C@H]2[C@@H]3C=C(C)C4=CC(=O)CC[C@]4(C)[C@@H]3CC[C@@]21C |  | inactive: 106%
Cc1cc(C(C)(C)C)c(O)c(C)c1CC1=NCCN1 |  | inactive: 110%
O=C(Nc1ccc([N+](=O)[O-])cc1Cl)c1cc(Cl)ccc1O | active: 1.32 µM | 
NC(=O)Cc1cccc(C(=O)c2ccccc2)c1N | inconclusive: 0.0264 µM [cytotoxic, full curve, poor fit] | 
O=C1c2c(O)cc(O)cc2O[C@H](c2cc(O)c(O)c(O)c2)[C@H]1O | active: 18.7 µM | 

Complete entries from above.
COc1cccc(-c2cc(=O)c3ccccc3o2)c1N in the list: viability (% of DMSO): inactive: 98.5%
OC(CN1CCC(Cc2ccc(F)cc2)CC1)c1ccc(Cl)cc1 (stereo not given) in the list: viability (% of DMSO): inactive: 102%
